From the supplement of paper PMC6411743 come the findings set out here.

By UniProt entry, the sequences of proteins in these tests, tags left out. Where a name states a change or a piece, a line headed by the entry shows the natural chain unless it says otherwise.
UniProt Q9BUL5: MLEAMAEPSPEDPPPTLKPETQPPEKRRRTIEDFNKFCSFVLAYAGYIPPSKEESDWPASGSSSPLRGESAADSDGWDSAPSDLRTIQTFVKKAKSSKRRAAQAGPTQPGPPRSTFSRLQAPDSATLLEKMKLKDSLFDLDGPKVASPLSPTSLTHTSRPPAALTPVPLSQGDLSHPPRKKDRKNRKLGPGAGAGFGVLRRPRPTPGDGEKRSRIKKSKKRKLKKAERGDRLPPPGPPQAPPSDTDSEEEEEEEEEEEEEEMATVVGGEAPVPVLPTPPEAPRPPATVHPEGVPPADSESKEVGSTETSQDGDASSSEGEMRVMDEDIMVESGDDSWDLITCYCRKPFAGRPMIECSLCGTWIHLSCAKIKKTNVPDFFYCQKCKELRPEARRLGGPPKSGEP
UniProt Q96S90: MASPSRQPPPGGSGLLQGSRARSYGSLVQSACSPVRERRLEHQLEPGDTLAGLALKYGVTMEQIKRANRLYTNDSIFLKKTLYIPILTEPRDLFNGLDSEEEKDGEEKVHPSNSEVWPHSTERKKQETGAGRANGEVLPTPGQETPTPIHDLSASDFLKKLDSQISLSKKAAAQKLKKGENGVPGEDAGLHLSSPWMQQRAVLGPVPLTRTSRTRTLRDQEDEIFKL
UniProt Q99653: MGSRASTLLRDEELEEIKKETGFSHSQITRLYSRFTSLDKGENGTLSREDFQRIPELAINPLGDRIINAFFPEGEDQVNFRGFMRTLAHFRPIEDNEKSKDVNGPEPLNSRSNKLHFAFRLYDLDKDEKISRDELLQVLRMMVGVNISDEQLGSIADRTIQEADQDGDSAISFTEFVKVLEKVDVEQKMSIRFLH
UniProt Q9BVP2: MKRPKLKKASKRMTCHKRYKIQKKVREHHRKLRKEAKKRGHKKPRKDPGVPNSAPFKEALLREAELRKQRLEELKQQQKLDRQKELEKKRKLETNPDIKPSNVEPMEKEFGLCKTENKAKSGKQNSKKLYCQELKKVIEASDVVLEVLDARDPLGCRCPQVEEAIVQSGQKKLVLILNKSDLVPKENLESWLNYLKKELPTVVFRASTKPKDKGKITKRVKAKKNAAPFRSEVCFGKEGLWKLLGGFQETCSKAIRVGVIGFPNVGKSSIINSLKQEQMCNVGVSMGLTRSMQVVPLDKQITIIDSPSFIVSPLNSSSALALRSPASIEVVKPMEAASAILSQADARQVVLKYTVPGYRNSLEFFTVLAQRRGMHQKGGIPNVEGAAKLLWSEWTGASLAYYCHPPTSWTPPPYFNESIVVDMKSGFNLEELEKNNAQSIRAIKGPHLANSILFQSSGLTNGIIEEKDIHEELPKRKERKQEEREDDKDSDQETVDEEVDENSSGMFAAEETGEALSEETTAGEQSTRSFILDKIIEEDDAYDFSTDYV
UniProt Q9BVW5: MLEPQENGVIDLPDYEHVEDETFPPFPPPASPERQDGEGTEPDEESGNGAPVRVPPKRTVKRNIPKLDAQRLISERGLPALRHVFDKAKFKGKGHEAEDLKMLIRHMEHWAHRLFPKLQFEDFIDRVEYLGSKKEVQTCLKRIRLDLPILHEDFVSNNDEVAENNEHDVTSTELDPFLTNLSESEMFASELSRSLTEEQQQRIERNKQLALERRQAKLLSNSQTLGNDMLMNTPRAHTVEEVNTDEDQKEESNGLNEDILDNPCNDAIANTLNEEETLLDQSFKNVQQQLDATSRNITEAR
UniProt Q99538: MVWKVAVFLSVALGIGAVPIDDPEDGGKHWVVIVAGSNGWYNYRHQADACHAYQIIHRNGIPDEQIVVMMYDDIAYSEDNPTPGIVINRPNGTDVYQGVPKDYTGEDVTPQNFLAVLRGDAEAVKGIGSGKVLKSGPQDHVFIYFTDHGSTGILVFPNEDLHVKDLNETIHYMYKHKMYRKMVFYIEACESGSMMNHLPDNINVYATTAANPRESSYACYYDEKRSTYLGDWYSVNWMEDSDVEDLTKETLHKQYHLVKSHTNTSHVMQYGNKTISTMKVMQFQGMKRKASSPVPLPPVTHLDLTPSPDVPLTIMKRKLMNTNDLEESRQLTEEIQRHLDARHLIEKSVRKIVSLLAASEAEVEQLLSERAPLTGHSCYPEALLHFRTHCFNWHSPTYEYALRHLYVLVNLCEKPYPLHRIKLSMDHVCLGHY
UniProt Q96SU4: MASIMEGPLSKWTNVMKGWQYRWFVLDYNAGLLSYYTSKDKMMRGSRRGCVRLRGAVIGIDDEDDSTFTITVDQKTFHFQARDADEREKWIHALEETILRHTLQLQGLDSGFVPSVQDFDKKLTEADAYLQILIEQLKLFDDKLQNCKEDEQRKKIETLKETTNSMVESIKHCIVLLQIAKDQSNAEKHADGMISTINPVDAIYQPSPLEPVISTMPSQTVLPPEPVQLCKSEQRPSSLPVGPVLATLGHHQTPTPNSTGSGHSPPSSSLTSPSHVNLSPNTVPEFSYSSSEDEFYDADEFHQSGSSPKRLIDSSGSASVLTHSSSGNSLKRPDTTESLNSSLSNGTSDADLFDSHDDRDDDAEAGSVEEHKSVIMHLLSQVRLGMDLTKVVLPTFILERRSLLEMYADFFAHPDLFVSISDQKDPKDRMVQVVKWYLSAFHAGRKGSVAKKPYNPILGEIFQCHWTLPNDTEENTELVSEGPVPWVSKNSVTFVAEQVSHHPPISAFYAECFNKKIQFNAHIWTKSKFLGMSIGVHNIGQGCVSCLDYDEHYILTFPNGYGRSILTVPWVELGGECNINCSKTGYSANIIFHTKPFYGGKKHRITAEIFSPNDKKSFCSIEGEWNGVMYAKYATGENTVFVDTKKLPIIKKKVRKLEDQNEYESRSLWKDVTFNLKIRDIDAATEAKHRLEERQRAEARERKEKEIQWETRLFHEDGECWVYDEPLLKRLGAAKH
UniProt Q99767, whole entry: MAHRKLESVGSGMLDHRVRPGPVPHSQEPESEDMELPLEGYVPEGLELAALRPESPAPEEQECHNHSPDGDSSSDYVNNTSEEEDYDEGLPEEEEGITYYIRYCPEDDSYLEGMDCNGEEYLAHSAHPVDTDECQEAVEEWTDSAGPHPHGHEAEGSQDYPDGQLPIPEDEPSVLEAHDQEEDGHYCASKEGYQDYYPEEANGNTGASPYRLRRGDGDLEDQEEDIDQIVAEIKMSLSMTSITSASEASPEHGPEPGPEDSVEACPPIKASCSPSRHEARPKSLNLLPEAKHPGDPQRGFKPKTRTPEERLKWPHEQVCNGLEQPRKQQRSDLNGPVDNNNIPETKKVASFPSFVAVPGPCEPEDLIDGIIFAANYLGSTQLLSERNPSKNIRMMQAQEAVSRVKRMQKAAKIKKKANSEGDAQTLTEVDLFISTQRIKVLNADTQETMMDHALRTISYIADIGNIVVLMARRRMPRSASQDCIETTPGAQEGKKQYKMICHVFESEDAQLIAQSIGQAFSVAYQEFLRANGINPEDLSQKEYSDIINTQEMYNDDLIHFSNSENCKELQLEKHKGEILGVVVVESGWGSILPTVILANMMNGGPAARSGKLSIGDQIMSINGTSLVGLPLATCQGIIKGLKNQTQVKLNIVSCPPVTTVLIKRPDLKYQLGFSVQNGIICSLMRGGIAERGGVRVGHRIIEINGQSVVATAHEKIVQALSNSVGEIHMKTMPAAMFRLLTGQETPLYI
UniProt Q9BSH5: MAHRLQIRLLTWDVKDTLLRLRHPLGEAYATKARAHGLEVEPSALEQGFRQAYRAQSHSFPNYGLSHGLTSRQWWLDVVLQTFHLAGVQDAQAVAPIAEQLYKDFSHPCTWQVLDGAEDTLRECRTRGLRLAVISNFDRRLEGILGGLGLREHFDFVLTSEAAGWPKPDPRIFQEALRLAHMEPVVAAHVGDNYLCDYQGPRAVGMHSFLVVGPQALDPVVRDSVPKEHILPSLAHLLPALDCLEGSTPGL
UniProt Q9BQ52: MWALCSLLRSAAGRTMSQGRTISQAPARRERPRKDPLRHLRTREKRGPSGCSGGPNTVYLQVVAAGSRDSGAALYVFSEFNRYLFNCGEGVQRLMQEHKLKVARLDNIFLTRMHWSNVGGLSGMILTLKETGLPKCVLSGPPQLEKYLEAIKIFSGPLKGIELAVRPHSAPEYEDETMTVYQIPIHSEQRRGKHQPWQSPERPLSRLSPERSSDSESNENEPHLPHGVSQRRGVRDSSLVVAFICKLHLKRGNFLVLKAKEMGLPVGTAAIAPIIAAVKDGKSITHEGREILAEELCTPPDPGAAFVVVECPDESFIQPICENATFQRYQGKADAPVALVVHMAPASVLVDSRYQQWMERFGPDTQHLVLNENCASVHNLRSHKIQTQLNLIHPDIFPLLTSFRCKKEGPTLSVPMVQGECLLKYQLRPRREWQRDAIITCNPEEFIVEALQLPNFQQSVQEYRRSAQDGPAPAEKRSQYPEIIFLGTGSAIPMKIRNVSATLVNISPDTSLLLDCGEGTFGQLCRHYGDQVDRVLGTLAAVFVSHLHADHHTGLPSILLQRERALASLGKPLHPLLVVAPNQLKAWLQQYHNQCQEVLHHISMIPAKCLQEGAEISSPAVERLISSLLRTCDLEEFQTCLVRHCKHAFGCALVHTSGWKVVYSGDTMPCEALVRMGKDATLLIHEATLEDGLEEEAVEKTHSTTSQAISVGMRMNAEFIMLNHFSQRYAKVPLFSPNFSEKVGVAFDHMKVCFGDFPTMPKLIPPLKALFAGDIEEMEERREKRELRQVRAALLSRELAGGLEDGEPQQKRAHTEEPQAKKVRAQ
UniProt Q9BTV7: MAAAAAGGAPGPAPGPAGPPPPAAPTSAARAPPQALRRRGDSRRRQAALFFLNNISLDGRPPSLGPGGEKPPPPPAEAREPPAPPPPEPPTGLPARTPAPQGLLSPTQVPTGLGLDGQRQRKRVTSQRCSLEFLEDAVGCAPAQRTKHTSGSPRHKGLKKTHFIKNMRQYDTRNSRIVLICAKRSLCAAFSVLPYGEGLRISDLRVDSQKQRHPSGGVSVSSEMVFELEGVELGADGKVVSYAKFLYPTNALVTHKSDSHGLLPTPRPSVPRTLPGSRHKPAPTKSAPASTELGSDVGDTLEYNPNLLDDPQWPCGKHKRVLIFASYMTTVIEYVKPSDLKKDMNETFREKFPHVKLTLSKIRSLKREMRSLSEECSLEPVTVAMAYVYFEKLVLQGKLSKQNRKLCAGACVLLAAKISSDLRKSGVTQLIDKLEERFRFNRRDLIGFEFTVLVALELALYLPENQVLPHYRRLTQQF
UniProt Q9BR76, whole entry: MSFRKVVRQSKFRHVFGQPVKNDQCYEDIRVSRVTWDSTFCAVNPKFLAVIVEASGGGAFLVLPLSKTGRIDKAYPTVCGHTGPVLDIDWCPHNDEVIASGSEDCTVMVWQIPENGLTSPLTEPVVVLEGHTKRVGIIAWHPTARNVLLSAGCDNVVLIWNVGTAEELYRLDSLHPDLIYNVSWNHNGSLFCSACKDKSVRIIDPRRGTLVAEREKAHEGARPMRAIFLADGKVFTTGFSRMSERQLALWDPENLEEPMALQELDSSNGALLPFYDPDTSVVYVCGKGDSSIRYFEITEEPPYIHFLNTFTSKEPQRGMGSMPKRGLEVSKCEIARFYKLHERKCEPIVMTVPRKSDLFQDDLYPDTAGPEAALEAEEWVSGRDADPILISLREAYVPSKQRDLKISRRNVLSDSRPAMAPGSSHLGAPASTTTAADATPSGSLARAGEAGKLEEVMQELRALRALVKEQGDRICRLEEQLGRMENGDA
UniProt Q9BRS2: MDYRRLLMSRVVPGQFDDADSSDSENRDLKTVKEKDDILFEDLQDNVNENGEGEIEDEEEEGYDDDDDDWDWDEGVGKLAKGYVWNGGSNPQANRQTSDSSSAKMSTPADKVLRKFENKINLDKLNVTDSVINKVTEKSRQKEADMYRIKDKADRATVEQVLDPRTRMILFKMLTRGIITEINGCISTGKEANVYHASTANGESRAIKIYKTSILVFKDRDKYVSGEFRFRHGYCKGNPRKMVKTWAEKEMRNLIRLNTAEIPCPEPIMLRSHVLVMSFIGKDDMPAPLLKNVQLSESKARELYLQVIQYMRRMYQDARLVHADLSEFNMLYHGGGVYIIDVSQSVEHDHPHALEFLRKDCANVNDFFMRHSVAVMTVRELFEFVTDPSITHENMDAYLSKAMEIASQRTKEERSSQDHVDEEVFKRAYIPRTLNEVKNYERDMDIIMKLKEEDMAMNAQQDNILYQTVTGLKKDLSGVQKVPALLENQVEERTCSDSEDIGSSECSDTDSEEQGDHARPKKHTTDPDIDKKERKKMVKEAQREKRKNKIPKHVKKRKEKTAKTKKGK
UniProt Q99757: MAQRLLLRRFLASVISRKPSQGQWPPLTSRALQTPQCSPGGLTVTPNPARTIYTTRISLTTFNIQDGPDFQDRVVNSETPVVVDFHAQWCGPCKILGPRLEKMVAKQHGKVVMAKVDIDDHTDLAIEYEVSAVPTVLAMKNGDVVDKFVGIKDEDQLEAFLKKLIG

Compound in this assay: Nc1ncnc2c1ncn2[C@@H]1O[C@H](COP(=O)(O)OP(=O)(O)NP(=O)(O)O)[C@@H](O)[C@H]1O [adenylyl imidodiphosphate]
Put plainly: NP40-soluble protein abundance relative to vehicle (solubility fold change) (ratio); higher = more soluble protein in presence of AMP-PNP. The procedure, abridged: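 Jurkat crude lysate prepared with a Dounce homogeniser was treated at eight concentrations spanning 0.1 to 10 mM, 10 min at room temperature then 3 min at 37 °C. Solubilisation with 0.8% NP40 and benzonase and ultracentrifugation preceded TMT labelling of the supernatant for LC-MS/MS. Fold change against the detergent-processed vehicle was determined per replicate from vsn-normalised intensities, across three independent experiments.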

± gives the standard deviation of the averaged measurements. Only a part is listed here, and it is no random draw.

With UniProt Q9BUL5 and related entries, the NP40-soluble protein abundance by setting is: (concentration: 1mM) 1.02 ± 0.019; (concentration: 2mM) 1.07 ± 0.093; (concentration: 4mM) 1.01 ± 0.023; (concentration: 6mM) 1.06 ± 0.023; (concentration: 8mM) 1.01 ± 0.035; (concentration: 10mM) 1.02 ± 0.061.

Consider LYSMD1 (UniProt Q96S90), for which the NP40-soluble protein abundance (concentration: 1mM) was determined as 1.01 ± 0.013; the NP40-soluble protein abundance (concentration: 2mM) was determined as 1.06 ± 0.067; the NP40-soluble protein abundance (concentration: 4mM) was 0.994 ± 0.042; the NP40-soluble protein abundance (concentration: 6mM) worked out at 0.981 ± 0.025; the NP40-soluble protein abundance (concentration: 8mM) worked out at 0.993 ± 0.029; the NP40-soluble protein abundance (concentration: 10mM) amounted to 1.01 ± 0.033.

As to UniProt Q99653, the NP40-soluble protein abundance worked out at 1.002 ± 0.0076 (concentration: 1mM); 1.014 ± 0.0064 (concentration: 2mM); 0.988 ± 0.026 (concentration: 4mM); 0.988 ± 0.018 (concentration: 6mM); 0.976 ± 0.02 (concentration: 8mM); 0.969 ± 0.021 (concentration: 10mM).

As to UniProt Q9BVP2 and related entries, the NP40-soluble protein abundance reads like this: (concentration: 1mM) 1.07 ± 0.054; (concentration: 2mM) 1.09 ± 0.023; (concentration: 4mM) 1.11 ± 0.061; (concentration: 6mM) 1.12 ± 0.12; (concentration: 8mM) 1.14 ± 0.1; (concentration: 10mM) 1.23 ± 0.13.

Consider TIPIN (UniProt Q9BVW5), for which the NP40-soluble protein abundance was 0.948 ± 0.06 (concentration: 1mM); 1.04 ± 0.14 (concentration: 2mM); 0.933 ± 0.072 (concentration: 4mM); 0.928 ± 0.063 (concentration: 6mM); 0.911 ± 0.057 (concentration: 8mM); 0.929 ± 0.093 (concentration: 10mM).

Turning to UniProt Q99538 and related entries, the NP40-soluble protein abundance runs as follows: (concentration: 1mM) 0.998 ± 0.025; (concentration: 2mM) 1.06 ± 0.044; (concentration: 4mM) 1.03 ± 0.021; (concentration: 6mM) 1.04 ± 0.037; (concentration: 8mM) 1.03 ± 0.039; (concentration: 10mM) 1.08 ± 0.062.

With UniProt Q96SU4 and related entries, the NP40-soluble protein abundance (concentration: 1mM) came to 1.02 ± 0.02; the NP40-soluble protein abundance (concentration: 2mM) is 0.987 ± 0.017; the NP40-soluble protein abundance (concentration: 4mM) came out at 0.982 ± 0.021; the NP40-soluble protein abundance (concentration: 6mM) amounted to 0.971 ± 0.011; the NP40-soluble protein abundance (concentration: 8mM) came to 0.974 ± 0.015; the NP40-soluble protein abundance (concentration: 10mM) was determined as 0.975 ± 0.015.

Turning to UniProt Q99767-2|Q99767, the NP40-soluble protein abundance reads like this: (concentration: 1mM) 0.989 ± 0.021; (concentration: 2mM) 1.01 ± 0.029; (concentration: 4mM) 1 ± 0.082; (concentration: 6mM) 0.9979 ± 0.0037; (concentration: 8mM) 0.96 ± 0.03; (concentration: 10mM) 0.982 ± 0.033.

Consider HDHD3 (UniProt Q9BSH5), for which the NP40-soluble protein abundance by setting is: (concentration: 1mM) 0.996 ± 0.019; (concentration: 2mM) 0.978 ± 0.086; (concentration: 4mM) 1.04 ± 0.059; (concentration: 6mM) 1 ± 0.039; (concentration: 8mM) 1.01 ± 0.039; (concentration: 10mM) 0.996 ± 0.066.

Regarding PIGS (UniProt Q96S52), the NP40-soluble protein abundance was determined as 0.9764 ± 0.0075 (concentration: 1mM); 0.971 ± 0.021 (concentration: 2mM); 0.983 ± 0.0063 (concentration: 4mM); 0.987 ± 0.025 (concentration: 6mM); 0.973 ± 0.03 (concentration: 8mM); 0.992 ± 0.023 (concentration: 10mM).

For the target UniProt Q9BQ52 and related entries, the NP40-soluble protein abundance by setting is: (concentration: 1mM) 1.01 ± 0.014; (concentration: 2mM) 0.985 ± 0.04; (concentration: 4mM) 1.008 ± 0.0077; (concentration: 6mM) 0.994 ± 0.024; (concentration: 8mM) 1.01 ± 0.02; (concentration: 10mM) 1 ± 0.012.

Regarding CABLES2 (UniProt Q9BTV7), the NP40-soluble protein abundance was 1 ± 0.016 (concentration: 1mM); 1 ± 0.014 (concentration: 2mM); 0.98908 ± 0.00067 (concentration: 4mM); 0.996 ± 0.029 (concentration: 6mM); 1 ± 0.011 (concentration: 8mM); 0.985 ± 0.017 (concentration: 10mM).

With CORO1B (UniProt Q9BR76), the NP40-soluble protein abundance is 1.06 ± 0.034 (concentration: 1mM); 1.06 ± 0.043 (concentration: 2mM); 1.06 ± 0.033 (concentration: 4mM); 1.05 ± 0.045 (concentration: 6mM); 1.06 ± 0.044 (concentration: 8mM); 1.07 ± 0.05 (concentration: 10mM).

Consider RIOK1 (UniProt Q9BRS2), for which the NP40-soluble protein abundance reads like this: (concentration: 1mM) 0.921 ± 0.032; (concentration: 2mM) 0.975 ± 0.029; (concentration: 4mM) 0.959 ± 0.04; (concentration: 6mM) 0.934 ± 0.062; (concentration: 8mM) 0.9 ± 0.03; (concentration: 10mM) 0.999 ± 0.046.

Consider TXN2 (UniProt Q99757), for which the NP40-soluble protein abundance (concentration: 1mM) is 0.99 ± 0.065; the NP40-soluble protein abundance (concentration: 2mM) came to 1.032 ± 0.0055; the NP40-soluble protein abundance (concentration: 4mM) was found to be 0.976 ± 0.081; the NP40-soluble protein abundance (concentration: 6mM) is 0.986 ± 0.022; the NP40-soluble protein abundance (concentration: 8mM) was found to be 0.938 ± 0.013; the NP40-soluble protein abundance (concentration: 10mM) is 0.945 ± 0.038.
